{"source": "PubChem BioAssay AID504444", "about": "(National Center for Advancing Translational Sciences (NCATS), 2011)", "note": "Among all 360,000 compounds or so, about 7,500 (2.1%) were called active. This list was built around the results that the source calls inconclusive (neither active nor inactive); the mix of calls is not that of the screen. The call rests on the fitted dose curve; in most records, active means well fitted inhibition curve with a large enough effect; inconclusive means small, poorly fitted or top-dose-only effect, or effect the other way; inactive means flat fitted curve, though single readings scatter. A potency beside an inconclusive call is a rough fit, not a confirmed value. On the % scale 0 is the no-effect control and ±100 the full control effect; potency means the concentration at half of the fitted maximal effect.", "data": [{"assay": "Nrf2 qHTS screen for inhibitors; further: nearly all actives have a fitted effect of over 60% in size", "details": "A549 ARE-Fluc reporter, luciferase luminescence, 18-24 h; activity change, negative = inhibition: at 46 µM (top of the series)", "outline": "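Cells were seeded and rested 2 h, then exposed to compounds for 18-24 h. CellTiter-Fluor was read first as a viability measure. BugLite was added 15 min before the final luminescent read of ARE-luciferase activity in A549 cells.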", "values": [{"compound": "Nc1nc(CSC(=S)N2CCN(c3ccccc3)CC2)nc(Nc2ccc(F)cc2)n1", "Potency": "active: 20.6 µM"}, {"compound": "COCn1c(COc2ccc3ccccc3c2)nc2ccccc21", "Potency": "inconclusive: 2.31 µM [activator, full curve]"}, {"compound": "O=[N+]([O-])c1cc(Cl)cc(/C=N/NC(=S)Nc2cc(S(=O)(=O)N3CCOCC3)ccc2Cl)c1O", "Potency": "inconclusive: 29.1 µM [falling, single point]"}, {"compound": "CC(Oc1cccc(Cl)c1)C(=O)Nc1nc(-c2ccccn2)cs1", "note": "(stereo not given)", "Potency": "active: 16.4 µM"}, {"compound": "O=C(N/N=C/c1cc(Br)cc(Cl)c1O)c1ccc2c(c1)OCO2", "Potency": "inconclusive: 29.1 µM [falling, single point]"}, {"compound": "Cc1cccc(NC(=O)C(=O)C2C(=O)Nc3ccccc32)c1", "note": "(stereo not given)", "Potency": "inconclusive: 4.61 µM [activator, full curve, poor fit]"}, {"compound": "Cc1cccc(/C=C/C(=O)c2ccc(NC3=NCCCS3)cc2)c1", "Potency": "inconclusive: 18.4 µM [falling, partial curve, poor fit]"}, {"compound": "CCOCc1cc(CN2CCN(c3cccc(C(F)(F)F)c3)CC2)c(O)c2ncccc12", "Potency": "inconclusive: 23.1 µM [falling, single point]"}, {"compound": "CC(=O)Nc1ccc(C#Cc2ccc(NC(C)=O)cc2)cc1", "Potency": "inconclusive: 16.4 µM [activator, single point]"}, {"compound": "COc1cc(N=Cc2c(O)[nH]c3ccccc23)cc(OC)c1OC", "Potency": "inconclusive: 0.82 µM [falling, full curve]"}, {"compound": "CCOC(=O)c1c(C(F)(F)F)nc2ncccn12", "activity change, negative = inhibition": "inactive: -19.1%"}, {"compound": "COc1cc(C(=O)OCC(C)=O)cc(NC(=O)c2ccco2)c1OC", "Potency": "inconclusive: 16.4 µM [falling, partial curve, poor fit]"}, {"compound": "CC(Nc1ccc(F)cc1)=[N+](C)CCNS(=O)(=O)c1ccc(Cl)cc1", "activity change, negative = inhibition": "inactive: 0.41%"}, {"compound": "CCCOc1ccc2c(=O)c(-c3cc(C(=O)OC)oc3C)c(C)oc2c1", "Potency": "active: 16.4 µM"}, {"compound": "CC(C)OCc1c(C(=O)OC/C(O)=C(\\C#N)c2nc3ccccc3[nH]2)oc2ccccc12", "Potency": "inconclusive: 20.6 µM [activator, single point]"}, {"compound": "COC(=O)N/N=C/c1cn(Cc2ccc(F)cc2)c2ccccc12", "Potency": "inconclusive: 16.4 µM [falling, single point]"}, {"compound": "O=C(COC(=O)c1ccc2ncsc2c1)NC(=O)C1CCCCC1", "Potency": "inconclusive: 29.1 µM [activator, single point]"}, {"compound": "Cc1ccc(/C=N/NC(=O)c2cccc(S(=O)(=O)Nc3cccc(Cl)c3)c2)o1", "Potency": "inconclusive: 0.0731 µM [falling, full curve, poor fit]"}, {"compound": "COc1ccc(CNc2nc3ccccc3n2C)c(O)c1", "Potency": "inconclusive: 29.1 µM [activator, single point]"}, {"compound": "CC(C)CCNC(=O)C1CCN(S(=O)(=O)c2ccc3c(c2)CC(C)N3C(=O)C2CCC2)CC1", "note": "(stereo not given)", "Potency": "inconclusive: 23.1 µM [falling, partial curve, poor fit]"}, {"compound": "COc1ccc(C(=O)c2cn(Cc3ccccc3)c3ccccc3c2=O)cc1OC", "Potency": "inconclusive: 25.9 µM [falling, partial curve, poor fit]"}, {"compound": "c1csc(-c2nc(N3CCN(Cc4ccc5c(c4)OCCO5)CC3)c3ccccc3n2)c1", "activity change, negative = inhibition": "inactive: -3.95%"}, {"compound": "CCSC1=N/C(=C\\C=C2/Oc3ccccc3N2CC)C(=O)S1", "Potency": "inconclusive: 29.1 µM [activator, single point]"}, {"compound": "CN1C(C(=O)Nc2cccc(O)c2)=CC(c2cccs2)=NS1(=O)=O", "Potency": "inconclusive: 0.0046 µM [falling, full curve, poor fit]"}, {"compound": "COc1ccc(OCCC(=O)NC2=NCCS2)cc1", "Potency": "inconclusive: 20.6 µM [activator, single point]"}, {"compound": "O=C(Nc1cccc(C(=O)N2CCN(c3ccc(F)cc3)CC2)c1)c1ccccc1", "Potency": "inconclusive: 18.4 µM [falling, partial curve]"}, {"compound": "COc1c2c(cc3oc(=O)c4c5ccc(O)cc5oc4c13)OC(C)(C)CC2", "Potency": "inconclusive: 18.4 µM [activator, partial curve]"}, {"compound": "CCCCCc1cc(=O)oc2c(C(CCN(CC)CC)c3ccc(OC)cc3)c(OC)cc(OC)c12", "note": "(stereo not given)", "activity change, negative = inhibition": "inactive: -1.64%"}, {"compound": "Cc1cccc(NC(=O)c2ccc(F)c(S(=O)(=O)NCc3ccco3)c2)c1", "activity change, negative = inhibition": "inactive: -12%"}, {"compound": "O=C(CSc1cccc2cccc(Cl)c12)NCc1cccs1", "activity change, negative = inhibition": "inactive: 8.89%"}, {"compound": "O=C(NCCc1nc2ccccc2n1Cc1ccccc1F)c1ccc(F)cc1", "Potency": "active: 23.1 µM"}, {"compound": "Cc1c(C(=O)N(Cc2ccc(Cl)cc2)C2CCS(=O)(=O)C2)oc2ccccc12", "note": "(stereo not given)", "Potency": "inconclusive: 29.1 µM [falling, single point]"}, {"compound": "C=CCc1ccc(OCCn2cccc2C=O)c(OC)c1", "Potency": "inconclusive: 2.91 µM [activator, partial curve]"}, {"compound": "C/C(=N\\Nc1ccc([N+](=O)[O-])cc1)c1ccc(-n2nncc2C)cc1", "Potency": "inconclusive: 4.61 µM [falling, partial curve, poor fit]"}, {"compound": "COc1ccc(Nc2nc(-c3ccccc3)nc3ccccc23)cc1S(=O)(=O)N1CCOCC1", "Potency": "inconclusive: 18.4 µM [falling, single point]"}, {"compound": "O=C(Cc1ccccc1[N+](=O)[O-])Nc1cccc(S(=O)(=O)NC2=NCCCCC2)c1", "Potency": "inconclusive: 4.61 µM [falling, partial curve, poor fit]"}, {"compound": "COc1ccc(NS(=O)(=O)c2ccc(N3CCOCC3)c(N)c2)cc1", "Potency": "active: 3.26 µM"}, {"compound": "Cc1ccc(OC(C)C(=O)Nc2ccncc2)cc1C", "note": "(stereo not given)", "Potency": "inconclusive: 23.1 µM [falling, single point]"}, {"compound": "O=C(Nc1cc(-c2ccccc2)nn1C1CCCCC1)c1ccc(Cl)cc1", "Potency": "inconclusive: 29.1 µM [falling, single point]"}, {"compound": "CCCCNCCS(=O)(=O)NCc1ccc(OC)cc1", "activity change, negative = inhibition": "inactive: 20.5%"}, {"compound": "Cc1onc(-c2ccccc2Cl)c1C(=O)N/N=C(\\N)COc1ccc(Cl)cc1", "Potency": "inconclusive: 29.1 µM [falling, single point]"}, {"compound": "CCC(C)n1cnc2c(c1=O)c1nc3ccccc3nc1n2Cc1ccccc1OC", "note": "(stereo not given)", "Potency": "inconclusive: 29.1 µM [falling, single point]"}, {"compound": "COc1ccc(-n2c(=O)c(CCC(=O)NCCc3ccccc3F)nc3ccccc32)cc1", "Potency": "inconclusive: 23.1 µM [falling, partial curve, poor fit]"}, {"compound": "CCC(C)S(=O)(=O)c1oc(-c2cccs2)nc1S(=O)(=O)c1ccccc1", "note": "(stereo not given)", "Potency": "inconclusive: 25.9 µM [falling, single point]"}, {"compound": "CCOC(=O)C(C(=O)OCC)C1OC(=O)c2cc3c(cc21)C(=O)OC3C(C(=O)OCC)C(=O)OCC", "note": "(stereo not given)", "Potency": "inconclusive: 29.1 µM [falling, single point]"}, {"compound": "COc1cc(OC)cc(-c2nnc(Nc3nc4c(F)cccc4s3)o2)c1", "Potency": "inconclusive: 23.1 µM [falling, single point]"}, {"compound": "COc1ccc(-c2cc(C(F)(F)F)nc(N3CCCCC3)n2)cc1OC", "activity change, negative = inhibition": "inactive: -0.47%"}, {"compound": "O=C(Nc1ccon1)c1sc2cc(Cl)ccc2c1Cl", "Potency": "inconclusive: 2.06 µM [activator, partial curve, poor fit]"}, {"compound": "COc1ccc(NC(=O)C2CCCO2)cc1", "note": "(stereo not given)", "Potency": "inconclusive: 0.0046 µM [activator, full curve, poor fit]"}, {"compound": "Cc1nc(SCC(=O)O)c(C#N)c2c1CCCC2", "Potency": "inconclusive: 7.31 µM [falling, partial curve, poor fit]"}, {"compound": "CN1C(=O)c2cccc3c(S(=O)(=O)Nc4cccc(C(=O)O)c4)ccc1c23", "Potency": "inconclusive: 23.1 µM [activator, partial curve, poor fit]"}, {"compound": "Cn1cc(S(=O)(=O)N2CCc3ccccc32)cc1C(=O)Nc1ccc(Cl)cc1", "Potency": "active: 8.2 µM"}, {"compound": "O=C(NCC1CCCO1)c1cccc(Oc2ccc([N+](=O)[O-])cc2)c1", "note": "(stereo not given)", "Potency": "inconclusive: 23.1 µM [falling, single point]"}, {"compound": "O=[N+]([O-])C(/C=C(\\Cl)[N+](=O)[O-])=C1N(Cc2ccc(Cl)nc2)CCN1Cc1ccc(Cl)nc1", "activity change, negative = inhibition": "inactive: -24.5%"}, {"compound": "N#Cc1nc(-c2cccc(Cl)c2)oc1NCc1cccnc1", "Potency": "inconclusive: 20.6 µM [falling, single point]"}, {"compound": "O=C(N/N=C/c1ccc2c(c1)OCO2)c1ccc(COc2cccc3cccnc23)cc1", "activity change, negative = inhibition": "inactive: -8.3%"}, {"compound": "COc1ccc(C(=O)N2CCCC(CNC(=O)c3ccc(F)cc3)C2)cc1OC", "note": "(stereo not given)", "Potency": "inconclusive: 3.26 µM [activator, partial curve, poor fit]"}, {"compound": "CCn1nnnc1SCC(=O)Nc1nc2ccc(OC)cc2s1", "activity change, negative = inhibition": "inactive: 19.3%"}, {"compound": "COc1ccc(CN(C)c2ccc(-c3nc(-c4ccc(OC)c(OC)c4)no3)cc2[N+](=O)[O-])cc1", "activity change, negative = inhibition": "inactive: -29.9%"}, {"compound": "Cc1cccc(N2CCN(C(=O)C3CCN(C(=O)c4cc5sccc5n4C)CC3)CC2C)c1", "note": "(stereo not given)", "Potency": "inconclusive: 29.1 µM [falling, single point]"}, {"compound": "COc1cc(NC(=O)C2CCN(S(=O)(=O)c3ccc4[nH]c(=O)oc4c3)CC2)cc(OC)c1", "Potency": "inconclusive: 29.1 µM [activator, single point]"}, {"compound": "Cn1c2cc(C(=O)O)sc2c2cnn(Cc3ccccc3F)c(=O)c21", "activity change, negative = inhibition": "inconclusive: 39.3% [activator]"}, {"compound": "CC1(C)CC[C@]2(C(=O)O)CC[C@]3(C)C(=CC[C@@H]4[C@@]5(C)CC[C@H](O[C@@H]6O[C@H](C(=O)O)[C@@H](O)[C@H](O[C@@H]7OC[C@H](O)[C@H](O)[C@H]7O)[C@H]6O)C(C)(C)[C@@H]5CC[C@]43C)[C@@H]2C1", "Potency": "active: 20.6 µM"}, {"compound": "COc1ccc(-n2c(C)c(C)c3c(N)ncnc32)cc1", "Potency": "inconclusive: 16.4 µM [activator, partial curve, poor fit]"}, {"compound": "O=C(CCNc1cc(Cl)cc(Cl)c1)c1cccs1", "activity change, negative = inhibition": "inactive: 8.9%"}]}]}
